Data published in PubChem BioAssay AID1671190 (National Center for Advancing Translational Sciences (NCATS), 2021).
Among all 580,000 compounds or so, about 6,100 (1.1%) were called active. The inconclusive results got no clear call from the source; some entries with a clear call stand among them for comparison. Calls come from the whole dose curve; as a rule, active = well fitted inhibition curve with a large enough effect; inconclusive = small, poorly fitted or top-dose-only effect, or another doubt; inactive = no such curve, though single readings can be large or run the other way. Potencies beside an inconclusive call are fits to weak or partial responses and may not hold up.

Chains of the proteins cited; added tags and fusions are not shown. Lines headed by an entry give the natural chain unless they say otherwise; changes in a name come on top.
UniProt P18054: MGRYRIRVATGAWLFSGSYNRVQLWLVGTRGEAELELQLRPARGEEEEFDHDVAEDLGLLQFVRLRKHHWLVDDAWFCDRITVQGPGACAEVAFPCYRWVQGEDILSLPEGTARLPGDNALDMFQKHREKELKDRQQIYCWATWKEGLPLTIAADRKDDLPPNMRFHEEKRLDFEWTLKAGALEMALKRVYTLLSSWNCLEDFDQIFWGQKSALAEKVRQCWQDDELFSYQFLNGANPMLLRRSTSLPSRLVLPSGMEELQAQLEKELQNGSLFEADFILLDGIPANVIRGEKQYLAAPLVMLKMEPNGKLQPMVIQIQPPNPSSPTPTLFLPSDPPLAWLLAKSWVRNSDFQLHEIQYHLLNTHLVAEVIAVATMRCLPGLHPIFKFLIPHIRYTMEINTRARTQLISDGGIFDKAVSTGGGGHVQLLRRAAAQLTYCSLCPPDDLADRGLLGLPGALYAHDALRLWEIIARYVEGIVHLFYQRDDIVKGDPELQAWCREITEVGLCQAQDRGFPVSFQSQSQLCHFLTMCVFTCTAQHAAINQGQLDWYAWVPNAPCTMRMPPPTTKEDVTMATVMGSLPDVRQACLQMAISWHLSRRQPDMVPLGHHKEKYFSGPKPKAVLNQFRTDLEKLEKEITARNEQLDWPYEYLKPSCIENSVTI

target: Polyunsaturated fatty acid lipoxygenase ALOX12 (Homo sapiens) (UniProt P18054); experiment: Primary qHTS assay for inhibitors of human arachidonate 12S-lipoxygenase (ALOX12): Round 2; details: purified 12hLO, xylenol orange hydroperoxide absorbance; activity change, negative = inhibition: at 108 µM (top of the series) unless noted
Procedure, shortened: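 Purified human 12hLO at 150 nM in 25 mM Hepes, 0.01% Triton X-100, pH 7.0, preincubated 15 min at room temperature with compound. Reaction started with 40 uM arachidonic acid, 30 min at room temperature. Hydroperoxide measured by Fe-xylenol orange, 573/405 nm absorbance ratio.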
% is set by controls: 0 for no effect and ±100 for the full control effect; potency is the fitted concentration of half-maximal effect.

SMILES	Potency	activity change, negative = inhibition
Oc1[nH]c2ccccc2c1/C=N/N1CCCCC1	inconclusive: 50.1 µM [inhibitor, partial curve, poor fit]	–
C/C(=N\Nc1nc(C)cc(C)n1)c1ccc([N+](=O)[O-])cc1	–	inactive: 15.7%
CCCC1=C(C(=O)OCC)C(c2ccc(OC)c(C)c2OC)C(C#N)=C(N)O1 (stereo unspecified)	inconclusive: 56.2 µM [inhibitor, partial curve, poor fit]	–
CC(C)c1ccc(CN2C(=O)C(n3ccc4ccccc43)c3cc(F)ccc32)cc1 (stereo unspecified)	inconclusive: 50.1 µM [inhibitor, partial curve, poor fit]	–
Cc1ccc(-c2cc(C(=O)Nc3cccc(CO)c3)c3ccccc3n2)cc1	inconclusive: 79.4 µM [inhibitor, single point]	–
O=C(NNS(=O)(=O)c1ccccc1[N+](=O)[O-])c1ccc(O)cc1	inconclusive: 50.1 µM [inhibitor, partial curve, poor fit]	–
COc1ccccc1-c1csc(N2N=C(C)CC2c2cc(OC)c(OC)c(OC)c2)n1 (stereo unspecified)	inconclusive: 100 µM [inhibitor, single point]	–
N#C/C(=C/c1ccc(-c2ccccc2)cc1)C(=O)Nc1ccc(N2CCOCC2)cc1	inconclusive: 39.8 µM [inhibitor, partial curve, poor fit]	–
CCOC(=O)C1=C(COC(=O)CCOc2ccc(OC)cc2)NC(=O)NC1C (stereo unspecified)	–	inconclusive: -43.5% [inhibitor]
O=C(C[n+]1ccc2ccccc2c1)Nc1cc(C(F)(F)F)ccc1Cl	inconclusive: 70.8 µM [inhibitor, partial curve, poor fit]	–
CCOc1ccc(CCNC(=O)CSc2cc(=O)n(C)c3ccccc23)cc1OCC	inconclusive: 126 µM [inhibitor, partial curve, poor fit]	–
Cc1cc(C(=O)COC(=O)c2cccnc2Cl)c(C)n1CC1CCCO1 (stereo unspecified)	inconclusive: 39.8 µM [inhibitor, single point]	–
Cc1cc(NC(=O)CCn2cnc3c2c(=O)n(C)c(=O)n3C)ccc1Br	–	inactive: 7.29%
CC(=O)Nc1cccc(-c2ccnc3c2CC(C)(C(=O)NCc2ccc(N(C)C)cc2)O3)c1 (stereo unspecified)	–	inactive: -5.12%
CN(C)CCNC(=O)c1cc2c(s1)-c1ccc(Cl)cc1SC2	inconclusive: 39.8 µM [inhibitor, partial curve]	–
CCCCN(c1ccccc1)c1ncnc2c1cnn2-c1ccc(Cl)cc1	inconclusive: 89.1 µM [inhibitor, partial curve, poor fit]	–
CC(C)Cn1c(=O)c2ccccc2n2c(-c3ccc(Br)cc3)nnc12	–	inactive: -25.4%
CC(C)(C)CN1CCOC[C@H]1c1ncc(-c2ccc(C(F)(F)F)cc2)[nH]1	–	inactive: 30% [at 176 µM]
COCCCn1c(=O)c2ccccc2n(Cc2cccc(C)c2)c1=O	–	inconclusive: -56.5% [inhibitor]
Cc1cc(OCc2cn(CC(=O)c3ccc(O)cc3)nn2)ccc1[N+](=O)[O-]	inconclusive: 39.8 µM [inhibitor, partial curve, poor fit]	–
Cc1ccccc1NC(=O)Cn1c(=O)n(Cc2ccc3c(c2)OCO3)c(=O)c2oc3ccccc3c21	inconclusive: 39.8 µM [inhibitor, partial curve, poor fit]	–
CCOC(=O)Cc1nnc(NC(=O)CSc2nnc3c4ccccc4n(C)c3n2)s1	–	inactive: 2.92%

SMILES	Potency	activity change, negative = inhibition
COC(=O)C1CCC(=S)N1C(=O)c1ccccc1 (stereo unspecified)	active: 8.91 µM	–
CCN1CCN(Cc2cc(=O)oc3cc(-c4ccccc4)c(O)cc23)CC1	active: 31.6 µM	–
Cc1nc(N2C(=O)C(=O)/C(=C(/O)c3ccccc3)C2c2ccco2)sc1C (stereo unspecified)	inconclusive: 44.7 µM [inhibitor, partial curve]	–
Cc1occc1-c1nnc(SC(C(=O)NCc2ccccc2)C(C)C)o1 (stereo unspecified)	–	inactive: 6.45%
Cc1cc(NC(=O)CSc2nnc(-c3cccc(F)c3)n2N)no1	–	inactive: -4.18%
Cc1ccc(-c2cn3cccc(C)c3n2)cc1NS(=O)(=O)c1ccccc1	inconclusive: 112 µM [inhibitor, partial curve, poor fit]	–
O=C(Nc1ccc2oc(=O)ccc2c1)c1cccc2ccccc12	inconclusive: 89.1 µM [inhibitor, single point]	–
COC(=O)c1cccc(NC(=O)c2cnccn2)c1	inconclusive: 112 µM [inhibitor, single point]	–
COc1ccc(OCC(=O)Nc2ccc(N3CCCCC3)cc2)cc1	–	inactive: -10.3%
C[N+](C)(C)CCCCOC(=O)C12CC3CC(CC(C3)C1)C2	inconclusive: 7.08 µM [inhibitor, partial curve, poor fit]	–
COc1cc(C2/C(=C(/O)c3ccc(F)cc3)C(=O)C(=O)N2CCCC(=O)O)ccc1O (stereo unspecified)	inconclusive: 35.5 µM [inhibitor, partial curve, poor fit]	–
Cc1cn2nc(C(=O)N3CCC(NC(=O)Cc4ccc(Cl)cc4)CC3)cc2c(=O)[nH]1	–	inactive: 3.61%
Cc1cc(N/C=C/C(=O)c2ccc(Br)cc2)no1	inconclusive: 100 µM [inhibitor, single point]	–
COCCOCc1nc(C2CCCCN2C(=O)c2ccco2)no1 (stereo unspecified)	–	inactive: 17.4%
CCOC(=O)NC(=S)Nc1ccc(C(C)(C)C)cc1Br	–	inactive: 280%
O=C1CN(C(=O)c2cc3ccccc3oc2=O)C(c2ccccc2)c2cc(F)ccc2N1 (stereo unspecified)	inconclusive: 112 µM [inhibitor, single point]	–
NC1=NC2(CCN(Cc3ccccc3)CC2)n2c(nc3ccccc32)N1	inconclusive: 50.1 µM [inhibitor, partial curve, poor fit]	–
Cc1ccccc1[S+](=O)([O-])N1CCC2(CC1)OCCN(Cc1ccccc1)C2=O	–	inactive: -5.64% [at 176 µM]
Cc1ccc(-n2sc3ccccc3c2=O)cc1S(=O)(=O)N1CCCCC1	active: 0.0891 µM	–
O=C(NCc1nc2ccccc2[nH]1)c1cc(-c2cccs2)nc2ccccc12	inconclusive: 79.4 µM [inhibitor, single point]	–
Cc1cccc(S(=O)C(c2ccccc2)c2ccccc2)c1 (stereo unspecified)	inconclusive: 31.6 µM [inhibitor, partial curve, poor fit]	–
Cc1ccc(CNC(=O)c2nc(SCc3cccc(C)c3)ncc2Cl)cc1	inconclusive: 0.631 µM [inhibitor, full curve, poor fit]	–

17 compounds from above, ordered by length of the SMILES, descending:
SMILES	Potency	activity change, negative = inhibition
Cc1ccccc1NC(=O)Cn1c(=O)n(Cc2ccc3c(c2)OCO3)c(=O)c2oc3ccccc3c21	inconclusive: 39.8 µM [inhibitor, partial curve, poor fit]	–
CC(=O)Nc1cccc(-c2ccnc3c2CC(C)(C(=O)NCc2ccc(N(C)C)cc2)O3)c1 (stereo unspecified)	–	inactive: -5.12%
Cc1cn2nc(C(=O)N3CCC(NC(=O)Cc4ccc(Cl)cc4)CC3)cc2c(=O)[nH]1	–	inactive: 3.61%
O=C1CN(C(=O)c2cc3ccccc3oc2=O)C(c2ccccc2)c2cc(F)ccc2N1 (stereo unspecified)	inconclusive: 112 µM [inhibitor, single point]	–
COc1ccccc1-c1csc(N2N=C(C)CC2c2cc(OC)c(OC)c(OC)c2)n1 (stereo unspecified)	inconclusive: 100 µM [inhibitor, single point]	–
CCCC1=C(C(=O)OCC)C(c2ccc(OC)c(C)c2OC)C(C#N)=C(N)O1 (stereo unspecified)	inconclusive: 56.2 µM [inhibitor, partial curve, poor fit]	–
O=C(NNS(=O)(=O)c1ccccc1[N+](=O)[O-])c1ccc(O)cc1	inconclusive: 50.1 µM [inhibitor, partial curve, poor fit]	–
CCOC(=O)C1=C(COC(=O)CCOc2ccc(OC)cc2)NC(=O)NC1C (stereo unspecified)	–	inconclusive: -43.5% [inhibitor]
C/C(=N\Nc1nc(C)cc(C)n1)c1ccc([N+](=O)[O-])cc1	–	inactive: 15.7%
Cc1ccc(-n2sc3ccccc3c2=O)cc1S(=O)(=O)N1CCCCC1	active: 0.0891 µM	–
NC1=NC2(CCN(Cc3ccccc3)CC2)n2c(nc3ccccc32)N1	inconclusive: 50.1 µM [inhibitor, partial curve, poor fit]	–
Cc1occc1-c1nnc(SC(C(=O)NCc2ccccc2)C(C)C)o1 (stereo unspecified)	–	inactive: 6.45%
CCCCN(c1ccccc1)c1ncnc2c1cnn2-c1ccc(Cl)cc1	inconclusive: 89.1 µM [inhibitor, partial curve, poor fit]	–
CN(C)CCNC(=O)c1cc2c(s1)-c1ccc(Cl)cc1SC2	inconclusive: 39.8 µM [inhibitor, partial curve]	–
Cc1cccc(S(=O)C(c2ccccc2)c2ccccc2)c1 (stereo unspecified)	inconclusive: 31.6 µM [inhibitor, partial curve, poor fit]	–
Cc1cc(N/C=C/C(=O)c2ccc(Br)cc2)no1	inconclusive: 100 µM [inhibitor, single point]	–
COC(=O)c1cccc(NC(=O)c2cnccn2)c1	inconclusive: 112 µM [inhibitor, single point]	–

(cont.)

SMILES	Potency	activity change, negative = inhibition
O=C(O)CN(Cc1ccco1)S(=O)(=O)c1ccccc1	inconclusive: 44.7 µM [inhibitor, partial curve, poor fit]	–
Clc1ccc(COc2cccc(CNc3nn[nH]n3)c2)c(Cl)c1	–	inactive: 4.74%
Cc1ccc(CNC(=O)c2cn(C)c3ccc(S(=O)(=O)N(C)C4CCCCC4)cc3c2=O)cc1	inconclusive: 31.6 µM [inhibitor, partial curve]	–
CCOC(=O)C(=O)/C(=C\N(C)C)c1onc(-c2ccccc2)c1C(=O)OC	inconclusive: 56.2 µM [inhibitor, partial curve, poor fit]	–
O=C1NC2(CCN(Cc3ccc(F)cc3)CC2)COc2ccccc21	–	inactive: -6.83% [at 176 µM]
COC(=O)C1=C(C)N(CCc2c[nH]c3ccccc23)C(=O)/C1=C\N(C)C	inconclusive: 20 µM [inhibitor, partial curve, poor fit]	–
Cc1ccc(C(=O)Nc2ccc(N3CCCC3)cc2)c(C)c1	inconclusive: 79.4 µM [inhibitor, partial curve, poor fit]	–
CCOc1ccc(N2C(=O)CC(Sc3nc(O)c(CC)c(=O)[nH]3)C2=O)cc1 (stereo unspecified)	inconclusive: 5.01 µM [inhibitor, full curve, poor fit]	–
COc1ccc(CNC(=O)CC[C@]23CC[C@](C)(O)C[C@H]2C(C)(C)C[C@@H]3NC(=O)c2cccc(F)c2)cc1	–	inactive: 7.33%
CCC(=O)N1N=C(c2cn(-c3ccccc3)nc2-c2ccc(OC)cc2)CC1c1ccco1 (stereo unspecified)	inconclusive: 8.91 µM [inhibitor, partial curve, poor fit]	–
COc1cccc(/C=C2\Sc3ccc(C(=O)NCc4cccnc4)cc3N(C)C2=O)c1	inconclusive: 126 µM [inhibitor, single point]	–
COC(=O)/C=C1/SC(=Nc2ccc(C)cc2C)NC1=O	–	inactive: -15.8%
O=C(O)CN1C(=O)/C(=C\c2ccccc2OCc2ccccc2)SC1=S	inconclusive: 28.2 µM [inhibitor, partial curve, poor fit]	–
COC(=O)C(C)N1C(=O)S/C(=C/c2cc(C)n(-c3ccccn3)c2C)C1=O (stereo unspecified)	inconclusive: 31.6 µM [inhibitor, single point]	–
N#CC(=C1C=C(Br)C(=NO)C=C1Cl)c1ccc(Cl)cc1	inconclusive: 39.8 µM [inhibitor, partial curve]	–
COCc1nc(C2CCN(C(=O)c3ccnn3C)C2)no1 (stereo unspecified)	–	inactive: 11.3%
Cc1nn(C)c(C)c1/C=C(/C(=O)C(C)(C)C)n1cncn1	inconclusive: 100 µM [inhibitor, partial curve, poor fit]	–
CC(C)(C)c1ccc(-c2n[nH]c(=S)n2/N=C/c2ccncc2)cc1	inconclusive: 44.7 µM [inhibitor, partial curve, poor fit]	–
Cc1cc(N2CCOCC2)nc2ccc(Cl)cc12	inconclusive: 44.7 µM [inhibitor, partial curve, poor fit]	–
CN1c2cc(C(=O)Nc3ccc(Cl)c(C(F)(F)F)c3)ccc2C(=O)N2CCCC21 (stereo unspecified)	–	inactive: -12.7%
Cc1ccccc1Nc1c(-c2ccsc2)nc2c(C)cccn12	inconclusive: 89.1 µM [inhibitor, partial curve, poor fit]	–
O=C(Nc1nnc(-c2ccco2)o1)c1ccc(S(=O)(=O)N2CCCC2)cc1	–	inactive: 10.5%
